PubChem BioAssay AID1259296 – Sanger Institute | 2017

Assay: 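Kinase knock-downs that boost killing by anchor drugs in colorectal cancer cells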 (follow-up of hits)
Cell system: CAR1 human colorectal cancer cells
Knock-down reagent: single siRNA against human genes
Conditions: anchor drugs BYL719 at 1 µM, cetuximab at 5 µg/ml or trametinib at 10 nM, or DMSO vehicle, added a day after transfection
Measurement: 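Viability of cells versus control pool 2 (non-targeting) averaged across replicates; for every anchor drug, synergy score comparing joint effect with drug or siRNA alone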
Reading the numbers: synergy with BYL719 and synergy with cetuximab and synergy with trametinib: higher = stronger synergy between knock-down and drug
Call rule: 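Active when synergy exceeds 0.10 with BYL719, cetuximab or trametinib, any one sufficing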
Here is a random part of 160 reagents. 45 of all reagents (28%) were called active. 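Calls are per single siRNA duplex in CAR1 cells only; how the synergy score is calculated is not stated.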 A number with no mark means an inactive call. Reagents against one gene are numbered here. Not all columns of the deposit are shown. No sequences are given here. The record does not give: the amount of reagent, the time to read-out.

The first 6 records as a preview:
Gene | reagent | synergy with BYL719 | synergy with cetuximab | synergy with trametinib
PLK1 | 1 | -0.0238 | -0.159 | 0.0272
PLK1 | 2 | 0.143 (active) | 0.0267 | 0.0434
PLK1 | 3 | 0.117 (active) | 0.0219 | 0.0869
PLK1 | 4 | 0.0615 | 0.0343 | 0.0241
MARK3 | 1 | -0.0673 | -0.136 | -0.115
MARK3 | 2 | -0.0865 | -0.00884 | 0.0226

Main list, from the start:
Gene | reagent | synergy with BYL719 | synergy with cetuximab | synergy with trametinib
PLK1 | 1 | -0.0238 | -0.159 | 0.0272
PLK1 | 2 | 0.143 (active) | 0.0267 | 0.0434
PLK1 | 3 | 0.117 (active) | 0.0219 | 0.0869
PLK1 | 4 | 0.0615 | 0.0343 | 0.0241
MARK3 | 1 | -0.0673 | -0.136 | -0.115
MARK3 | 2 | -0.0865 | -0.00884 | 0.0226
MARK3 | 3 | -0.0403 (active) | -0.0514 | 0.182
MARK3 | 4 | 0.105 (active) | -0.0326 | 0.114
CAMK2N1 | 1 | 0.0547 | -0.027 | -0.0424
CAMK2N1 | 2 | 0.375 (active) | -0.0439 | 0
CAMK2N1 | 3 | -0.0701 | -0.047 | -0.0405
CAMK2N1 | 4 | -0.0024 | -0.0149 | 0.0276
PRAG1 | 1 | 0.335 (active) | 0.045 | 0
PRAG1 | 2 | 0.442 (active) | -0.0064 | 0.0263
PRAG1 | 3 | -0.0203 | -0.0439 | 0
PRAG1 | 4 | -0.0396 | -0.0758 | 0.065
PINK1 | 1 | -0.201 | -0.131 | -0.0787
PINK1 | 2 | -0.089 | -0.11 | -0.0451
PINK1 | 3 | 0.107 (active) | -0.0952 | 0.0219
PINK1 | 4 | -0.131 | -0.137 | -0.0094
COASY | 1 | 0.133 (active) | 0.152 | 0.087
COASY | 2 | 0.21 (active) | 0.111 | 0.0392
COASY | 3 | 0.0546 | -0.00759 | 0.0684
COASY | 4 | -0.0183 | 0.000164 | 0.0124
HSPB8 | 1 | 0.0789 | -0.115 | 0.0343
HSPB8 | 2 | -0.0449 | -0.0294 | -0.00622
HSPB8 | 3 | 0.0322 | 0.0218 | 0.00954
HSPB8 | 4 | -0.0583 (active) | 0.0786 | 0.146
BRAF | 1 | 0.0884 | -0.0536 | 0.0643
BRAF | 2 | 0.131 (active) | -0.0244 | 0.00563
BRAF | 3 | 0.0872 (active) | 0.0335 | 0.185
BRAF | 4 | 0.0732 | 0.0505 | 0.0416
PAK1 | 1 | 0.0742 (active) | -0.0439 | 0.17
PAK1 | 2 | 0.0896 | -0.102 | 0.098
PAK1 | 3 | 0.0819 | -0.129 | 0.0215
PAK1 | 4 | -0.0399 | -0.0733 | -0.0106
GRK5 | 1 | 0.00567 | -0.0766 | -0.0342
GRK5 | 2 | -0.0627 | -0.0439 | 0
GRK5 | 3 | 0.0481 (active) | -0.0101 | 0.234
GRK5 | 4 | 0.0485 | 0.0196 | -0.000688
RPS6KA4 | 1 | -0.0744 | -0.0708 | -0.0335
RPS6KA4 | 2 | 0.0452 | 0.0456 | 0.0133
RPS6KA4 | 3 | 0.0395 | -0.0525 | 0.0334
RPS6KA4 | 4 | 0.0778 | -0.0209 | 0.0665
CRIM1 | 1 | -0.0332 | -0.0715 | -0.0201
CRIM1 | 2 | -0.081 | 0.00531 | 0
CRIM1 | 3 | 0.0507 | -0.0156 | -0.146
CRIM1 | 4 | 0.0737 | 0.0622 | 0.0382
MAP3K8 | 1 | -0.0562 | -0.072 | -0.0294
MAP3K8 | 2 | 0.0335 | -0.126 | -0.0834
MAP3K8 | 3 | -0.0561 | -0.0344 | -0.159
MAP3K8 | 4 | -0.097 | -0.0672 | -0.0805
